The exact form of at least one protein or probe is not confirmed.
Tested on: RNAP (RNA polymerase)
Experiment: EMSA
Conditions: positive control

GGATACGTAACAACGCTTATGCATCGCCGCCGCTACATCCCTGAGCTGAC (double strand) [dsDNA 50mer]
binding result: binds
